Test results as given in paper PMC8967839.
These are yes or no findings as the source states them, for the method shown. In cells and extracts the contact can be indirect. A yes stands for co-enrichment or nearness to the bait. Other partners may have been found. Each block holds one binder with its values, some of them ahead of it.

Biological target: anaCyp40 with C-terminal Strep-tag (Anabaena sp. PCC 7120)
Assay: affinity purification with mass spectrometry; Strep-tagged anaCyp40 from whole cell lysate of AFS-anacyp40-strep (1% β-DM, 100 mM Tris pH 8.0, 50 mM NaCl) on MagStrep type3 XT beads, 60 min at 4 °C; washes up to 100 mM NaCl and 0.5% Nonidet P-40; eluted with 50 mM D-biotin; wild-type Anabaena sp. as control; lysate not treated with RNAse or DNAse; LC-MS, p < 0.05

- binding: binds
B1: CcmM (protein, UniProt Q8YYI3 1-555)
chain: MAVRSTAAPPTPWSRSLAEAQIHESAFVHPFSNIIGDVHIGANVIIAPGTSIRADEGTPFHIGENTNIQDGVVIHGLEQGRVVGDDNKEYSVWVGSSASLTHMALIHGPAYVGDNSFIGFRSTVFNAKVGAGCIVMMHALIKDVEVPPGKYVPSGAIITNQKQADRLPDVQPQDRDFAHHVIGINQALRAGYLCAADSKCIAPLRNDQVKSYTSTTVIGLERSSEVASNSLGAETIEQVRYLLEQGYKIGSEHVDQRRFRTGSWTSCQPIEARSVGDALAALEACLADHSGEYVRLFGIDPKGKRRVLETIIQRPDGVVAGSTSFKAPASNTNGNGSYHSNGNGNGYSNGATSGKVSAETVDQIRQLLAGGYKIGTEHVDERRFRTGSWNSCKPIEATSAGEVVAALEECIDSHQGEYIRLIGIDPKAKRRVLESIIQRPNGQVAPSSSPRTVVSASSASSGTATATATRLSTEVVDQVRQILGGGYKLSIEHVDQRRFRTGSWSSTGAISATSEREAIAVIEASLSEFAGEYVRLIGIDPKAKRRVLETIIQRP

- binding: binds
B2: L23 (protein, UniProt Q8YPI1 1-104)
chain: MAKFDPRNLPDLVRRPILTEKATIMMEQNKYTFEVTPKASKPQIRAAIEDLFQVKVVKVNTALPPRRKKRVGKFIGFKPQYKKAIVTIAPGDVDKIRQVLFPEV

- binding: binds
B4: Hup (protein, UniProt P05514 1-94)
chain: MNKGELVDAVAEKASVTKKQADAVLTAALETIIEAVSSGDKVTLVGFGSFESRERKAREGRNPKTNEKMEIPATRVPAFSAGKLFREKVAPPKA

The remaining lines, values behind:

B3: RbpE (protein, UniProt Q9WX37 1-99)
chain: MSIYVGNLSYSVTQDDLTKVFSEYGSVTRVQLPTDRETGRVRGFGFVEMESSAAEDAAIQALDGAEWMGRVLKVNKARPREEKGARSGGGSWSRNNGGY
- binding: binds

B5: CpcG2 (protein, UniProt P29987 1-247)
chain: MSIPLLEYKPSSQNQRVPGYEVPNEDTPRIYRIEDAAYDSELKELIWATYRQVFSEHVILKFFRQGNLESQLKNRAISVRDFVRGLAKSEAFKTLVIKSNSNYRLVELALKRLLGRAPYNKDEEIAWSIKIATNGWDGFVDALLDSEEYQSNFGENIVPYQRRRYKDRPFNLVTPRYGNYWRDKLESERYIEGDIKNFLELAKSIEIKTVTFTPVSTANIKIPDTTRNTTPTGIPISVNPSANFPVR
- binding: binds

B6: InfC (protein, UniProt Q8YNE3 1-177)
chain: MPVIEKKRTRDLPQINERIRFPKIRVIDTDGSQLGILTPQEALQLAEEKELDLVLLSDKADPPVCRIMDYGKYKFEQEKKAREARKKQHTADVKEVKMRYKIEEHDYNVRVKQAERFLKDGDKVKATVMFRGREIQHSDLAEDLLKRMATDLEPFGEVQQAPKKEGRNMMMLISPKK
- binding: binds
